# Melanoma cell counts after drug treatment

Values as published with doi:10.1371/journal.pone.0140310, rounded.

All values are for the listed drug together with dasatinib (4 nM): Cc1nc(Nc2ncc(C(=O)Nc3c(C)cccc3Cl)s2)cc(N2CCN(CCO)CC2)n1

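Human melanoma cell lines in 1,536-well plates were treated with two drugs together for 72 h, then fixed, stained and imaged. Values are the number of DAPI-stained nuclei as a percentage of the DMSO control: 100 is no effect, lower means fewer cells. Concentrations were fixed for each drug; these are the lower of two levels, a fifth of the higher. These are primary screening values without error estimates.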 This is part of the screen, not chosen by result. A dash means that no value is listed here.

| Partner | A101D | A375 | COLO 792 | A2058 | C32 |
|---|---|---|---|---|---|
| O=C(CCCCCCC(=O)Nc1ccccc1)NO at 80 nM | 80.8 | 82.3 | - | 78.8 | 81.2 |
| CO[C@@H]1[C@H](N(C)C(=O)c2ccccc2)C[C@H]2O[C@]1(C)n1c3ccccc3c3c4c(c5c6ccccc6n2c5c31)C(=O)NC4 at 80 nM | 79.9 | 68.1 | - | 70.6 | 78.7 |
| NCC(=O)Nc1ccc(-n2nc(C(F)(F)F)cc2-c2ccc3c(ccc4ccccc43)c2)cc1 at 1000 nM | 88.5 | 15.1 | - | 78.8 | 90.7 |
| NC(=O)Nc1cc(-c2cccc(F)c2)sc1C(=O)N[C@H]1CCCNC1 at 20 nM | 84.8 | 85.9 | - | 82.8 | 93.1 |
| O=c1[nH]nc(Sc2ncc([N+](=O)[O-])s2)n1-c1ccc2c(c1)OCCO2 at 200 nM | 95.3 | 101 | - | 71.7 | 92.5 |
| COc1cc2c(Oc3ccc4[nH]c(C)cc4c3F)ncnc2cc1OCCCN1CCCC1 at 400 nM | 85.0 | 74.6 | - | 73.3 | 81.9 |
| CN(C)S(=O)(=O)c1ccc2c(c1)/C(=C/c1cc3c([nH]1)CCCC3)C(=O)N2 at 400 nM | 70.2 | 89.2 | - | 70.0 | 84.2 |
| C=CCn1c(=O)c2cnc(Nc3ccc(N4CCN(C)CC4)cc3)nc2n1-c1cccc(C(C)(C)O)n1 at 20 nM | 71.3 | 51.9 | - | 81.3 | 85.2 |
| CN(NC(=O)CC(=O)NN(C)C(=S)c1ccccc1)C(=S)c1ccccc1 at 6 nM | 70.0 | 29.9 | - | 69.4 | 82.7 |
| C=CCNC1=C2C[C@@H](C)C[C@H](OC)[C@H](O)[C@@H](C)/C=C(\C)[C@H](OC(N)=O)[C@@H](OC)/C=C\C=C(/C)C(=O)NC(=CC1=O)C2=O at 2 nM | 93.4 | 109 | - | 75.8 | 48.7 |
| COc1cc(Nc2ncc(F)c(Nc3ccc4c(n3)NC(=O)C(C)(C)O4)n2)cc(OC)c1OC at 400 nM | 84.1 | 74.7 | - | 59.2 | 98.3 |
| O=C(Nc1cccc(Cl)c1)Nc1ncc(CCNc2ncnc3ccsc23)s1 at 0.8 nM | 89.3 | 73.1 | - | 87.0 | 87.5 |
| C[C@@H]1CCN(C(=O)CC#N)C[C@@H]1N(C)c1ncnc2[nH]ccc12 at 1000 nM | 89.1 | 73.4 | - | 69.2 | 86.5 |
| O=C(O)c1ccc(-c2c[nH]c3ncc(-c4ccccc4)cc23)cc1C1CCCC1 at 160 nM | 86.4 | 90.1 | - | 77.8 | 95.4 |
| CN1CCN(c2ccc3nc(-c4c(N)c5c(F)cccc5[nH]c4=O)[nH]c3c2)CC1 at 100 nM | 82.6 | 77.3 | 65.4 | 81.4 | 92.6 |
| Cc1cc(N2CCOCC2)cc2[nH]c(-c3c(NC[C@@H](O)c4cccc(Cl)c4)cc[nH]c3=O)nc12 at 200 nM | 88.1 | 66.5 | - | 63.5 | 70.9 |
| OCCn1cc(-c2cnc3nnn(Cc4ccc5ncccc5c4)c3n2)cn1 at 1000 nM | 100 | 84.5 | - | 85.5 | 87.5 |
| CC1(C)NC(=O)N(c2ccc([N+](=O)[O-])c(C(F)(F)F)c2)C1=O at 1000 nM | 93.9 | 80.7 | - | 89.5 | 88.3 |
| Cc1ccc(NC(=O)c2cccc(N(C)C)c2)cc1NC(=O)c1ccc(O)cc1 at 2000 nM | 86.0 | 90.1 | - | 83.2 | 89.0 |

Once more, the final 2:

| Partner | A101D | A375 | COLO 792 | A2058 | C32 |
|---|---|---|---|---|---|
| CC1(C)NC(=O)N(c2ccc([N+](=O)[O-])c(C(F)(F)F)c2)C1=O at 1000 nM | 93.9 | 80.7 | - | 89.5 | 88.3 |
| Cc1ccc(NC(=O)c2cccc(N(C)C)c2)cc1NC(=O)c1ccc(O)cc1 at 2000 nM | 86.0 | 90.1 | - | 83.2 | 89.0 |